Experimental data as given in PubChem BioAssay AID540276 (National Center for Advancing Translational Sciences (NCATS), 2011).
Hit rate of the full screen: of about 300,000 compounds, about 5,400 (1.8%) were called active. This list was built around the results that the source calls inconclusive (neither active nor inactive); the mix of calls is not that of the screen. Calls follow the shape of the full dose curve; tested in HEK293 cells. Potencies of inconclusive entries are doubtful fits and often do not repeat.

assay: qHTS for inhibitors of binding or entry into cells for Marburg Virus; details: Marburg virus pseudotyped entry inhibition, cell reporter; activity change, negative = inhibition: at 37.8 µM (top of the series) unless noted
% is scaled to controls: 0 for no effect and ±100 for the full control effect; potency is read from the fitted curve at half-maximal effect.

SMILES	activity change, negative = inhibition	Potency
COc1ccc(NS(=O)(=O)c2cccc(C(=O)NCC(c3ccccc3)N(C)C)c2)cc1 (centres undefined)	inactive: 1.86%	
O=c1[nH]c2ccc(NC(=S)Nc3ccccc3Cl)cc2[nH]1		inconclusive: 31.6 µM [activator, single point]
CC(C)C(NCc1c(Cl)cccc1Cl)C(=O)O (centres undefined)	inactive: 2.17%	
Cc1noc(C)c1CSCC(=O)N1CCN(c2ccc(F)cc2)CC1		inconclusive: 8.91 µM [inhibitor, partial curve, poor fit]
CC1CCCCN1CCNC(=O)c1ccc(Cn2c(SCc3ccccc3)nc3cccnc32)cc1 (centres undefined)		inconclusive: 14.1 µM [inhibitor, partial curve, poor fit]
CC(C)NCCCOc1ccc(Cl)cc1Br		inconclusive: 28.2 µM [inhibitor, single point]
c1ccc(-n2ncc3c(N4CCC5(CC4)OCCO5)ncnc32)cc1		inconclusive: 0.501 µM [activator, partial curve, poor fit]
CCS(=O)(=O)c1ncc(Cl)c(C(=O)Nc2ccc(S(=O)(=O)N(C)c3ccccc3)cc2)n1		active: 11.2 µM
COc1ccc(NC(=O)CN(C)CC(=O)Nc2cccc(F)c2)cc1S(=O)(=O)N1CCCCC1	inactive: -4.51%	
CC(=O)N1CCN(CCS(=O)(=O)c2cc(Cl)ccc2Cl)CC1	inactive: -16.9%	
O=C(N/N=C/c1ccc(-c2ccc(S(=O)(=O)Nc3ncccn3)cc2)o1)c1cc2ccccc2cc1O		inconclusive: 35.5 µM [inhibitor, single point]
O=C(Cc1ccc(Cl)c(Cl)c1)N/N=C/c1cccnc1	inactive: -22.3% [at 46.1 µM]	
Cc1c(NC(=O)c2ccc(CC(C)C)o2)c(=O)n(-c2ccccc2)n1C		inconclusive: 3.16 µM [inhibitor, single point]
O=C(Nc1ccc2oc(-c3ccc4ccccc4c3)nc2c1)c1cccs1		inconclusive: 3.16 µM [activator, single point]
O=c1cc(Br)c(O)c(Br)cc1Br	inactive: 9.2% [at 46.1 µM]	
Cc1cc(NC(=O)CCC(=O)N(c2ccc(F)cc2)C(C(=O)NC2CCCC2)c2cccnc2)no1 (centres undefined)		inconclusive: 3.98 µM [inhibitor, partial curve, poor fit]
COc1ccc(N(C(=O)c2ccco2)C(C(=O)NC2CCCC2)c2ccc(N(C)C)cc2)cc1 (centres undefined)		inconclusive: 35.5 µM [inhibitor, single point]
COC(=O)C1=C(C)N(Cc2ccccc2)C(=NCCc2cccs2)NC1c1cccc(C(F)(F)F)c1 (centres undefined)		inconclusive: 2.66 µM [inhibitor, single point]
CC(C)[C@@H](CO[Si](C)(C)C(C)(C)C)N1C[C@@H](N2CCCC2)CS1(=O)=O		inconclusive: 35.3 µM [inhibitor, single point]

Sorted by molar mass (low to high): some entries from above
SMILES	activity change, negative = inhibition	Potency
CC(C)C(NCc1c(Cl)cccc1Cl)C(=O)O (centres undefined)	inactive: 2.17%	
COc1ccc(NS(=O)(=O)c2cccc(C(=O)NCC(c3ccccc3)N(C)C)c2)cc1 (centres undefined)	inactive: 1.86%	
O=C(N/N=C/c1ccc(-c2ccc(S(=O)(=O)Nc3ncccn3)cc2)o1)c1cc2ccccc2cc1O		inconclusive: 35.5 µM [inhibitor, single point]
